Source: patent US8562947B2, “Oxidized avidin with high residency time in the treated tissues” (Sigma-Tau Industrie Farmaceutiche Riunite S.p.A., priority 2007, dated 2013)

Assays:
[1] = Isothermal Titration Calorimetry of avidin/ST2210 interaction; type: binding; settings: ITC with ST2210
[2] = Tissue localization in cryosections of avidinated muscle (immunofluorescence, haematoxylin/eosin); type: in vivo, Balb/c nude mice; settings: muscle sections, 24 hrs after i.m. injection
Procedure: OXavidinHABA was evaluated for tissue localization in comparison to WTavidin in cryosections of avidinated tissues after intramuscular injection into one hind limb of Balb/c nude mice (Harlan, Udine Italy). The muscles were excised 24 hrs after treatment and serial cryosections were prepared from each sample. Each slide was stained with haematoxylin/eosin to evaluate the tissue morphology or incubated with a mouse anti avidin antibody (A5680, Sigma Aldrich, Italy) followed by anti mouse Alexa fluor 488 (Invitrogen, Milan Italy). Finally, slides were mounted with coverslips and observed under microscope.

Substance: OXavidin 20 mM NaIO4: avidin oxidized with 20 mM NaIO4 without HABA
- ΔS [1]: 0.16 cal mol^−1 K^−1

Substance: OXavidinHABA 1 mM NaIO4: avidin oxidized with 1 mM NaIO4 in presence of 1 mM HABA
- ΔS [1]: −12.7 cal mol^−1 K^−1

Substance: OXavidinHABA 5 mM NaIO4: avidin oxidized with 5 mM NaIO4 in presence of 1 mM HABA
- ΔS [1]: −21.6 cal mol^−1 K^−1

Substance: OXavidinHABA 10 mM NaIO4: avidin oxidized with 10 mM NaIO4 in presence of 1 mM HABA
- ΔS [1]: −23.7 cal mol^−1 K^−1

Substance: OXavidinHABA 20 mM NaIO4: avidin oxidized with 20 mM NaIO4 in presence of 1 mM HABA
- ΔS [1]: −28.0 cal mol^−1 K^−1

Substance: OXavidinHABA: HABA-saturated avidin oxidized with sodium periodate; NaIO4 concentration not stated at these places
- tissue localization (anti avidin immunofluorescence) [2]: strong homogenous distribution

Substance: WTavidin: wild type avidin, glycoprotein of about 68 kDa present in egg white, high affinity for biotin [reference compound]
- ΔS [1]: −19.6 cal mol^−1 K^−1
- tissue localization (anti avidin immunofluorescence) [2]: weak dotted localization
